This passage reports AC50 results from PubChem BioAssay AID1487 (National Center for Advancing Translational Sciences (NCATS), 2009).

This is one part of the list. Further columns of the screen follow, without active or inactive calls. The list favours compounds with an active or inconclusive main result. Potencies come from curve fits of mixed quality, noted in brackets.

A short description of the experiment: qHTS Assay for Modulators of Lamin A Splicing. To be noted: HeLa LMNA splicing GFP/RFP minigene ratio, 48 h. The gist of the method: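 Read-out is the ratio of GFP to DsRed2 object intensity, acquired by 488 nm laser-scanning cytometry on HeLa lamin A-EGFP minigene reporter cells. Compound incubation 48 hrs at 37 °C in Opti-MEM with 2% FBS; DMSO 0.5% final.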
In general terms: qHTS replaces the single test concentration by a dilution series.

Setting [1] is: measured here: GFP splicing reporter channel.
[2] abbreviates: measured here: RFP viability control channel.

The term AC50 denotes the concentration giving half of the maximal activity seen.

As for `CC(C)Oc1ccc(CN2CCc3nc(Nc4ccc5c(c4)OCCO5)ncc3C2)cc1`, the AC50 runs as follows: under setting [1], 35.5 µM [falling, single point]; under setting [2], 17.8 µM [falling, partial curve, poor fit]. `CNc1nccc(-c2ccc(Cl)cc2)c1C#N`: under setting [1], the concentration at half-maximal activity (AC50) was 3.98 µM [rising, full curve, poor fit]. As for `Cc1nc2nc(Cc3ccccc3)[nH]n2c(=O)c1Cl`, the AC50 runs as follows: under setting [1], 22.4 µM [falling, single point]; under setting [2], 35.5 µM [falling, single point].

As for `Cc1ccc(C)n1-c1ccc(-c2nnc3n2CCCCC3)s1`, the AC50 is, setting by setting: under setting [1], 14.1 µM [falling, partial curve, poor fit]; under setting [2], 11.2 µM [falling, partial curve].

For the compound `COc1ccc(Nc2ncnc3c2cnn3Cc2ccccc2)cc1OC`, the AC50 under setting [2] is 17.8 µM [rising, partial curve].

For the compound `Cc1cccc2sc(NC(=O)C3CCN(S(=O)(=O)c4cc([N+](=O)[O-])ccc4Cl)CC3)nc12`, the concentration at half-maximal activity (AC50) is, setting by setting: under setting [1], 8.91 µM [rising, partial curve, poor fit]; under setting [2], 10 µM [rising, partial curve]. For `Cc1ccc(/C=N/n2c(C)nc3ccccc3c2=O)s1`, the AC50 under setting [1] is 0.1 µM [falling, full curve, poor fit].

For `O=C(Nc1ccncc1)Nc1ccc(F)c(Cl)c1`, the AC50 is, setting by setting: under setting [1], 35.5 µM [falling, single point]; under setting [2], 35.5 µM [falling, single point]. As for `Fc1ccc(-c2noc3ncnc(Nc4ccc(F)cc4F)c23)cc1`, the AC50 under setting [1] was 0.316 µM [falling, full curve, poor fit]. As for `COc1ccc(S(=O)(=O)c2c(Nc3c(C)cccc3C)sc(C(=O)c3ccc(F)cc3)c2N)cc1`, the half-maximal activity concentration (AC50) under setting [1] is 1.12 µM [falling, full curve]. For `O=C(N/N=C/c1ccsc1)c1cc(-c2ccncc2)nc2ccccc12`, the half-maximal activity concentration (AC50) was 0.447 µM [rising, full curve] under setting [1] and 4.47 µM [rising, full curve] under setting [2].

Turning to `COc1nc(Nc2ccc3c(c2)OCO3)nc(OC)n1`, the AC50 under setting [2] was 3.98 µM [rising, single point]. In the case of `Cc1ccc(C(=O)N2CCc3cc(CNC(=O)CSc4ccccc4)ccc32)cc1`, the AC50 runs as follows: under setting [1], 0.316 µM [rising, partial curve, poor fit]; under setting [2], 0.0141 µM [rising, full curve, poor fit].

Consider `O=C(CSc1nnc(Cn2c(=O)sc3ccccc32)n1-c1ccccc1)N1CCOCC1`, for which the concentration at half-maximal activity (AC50) under setting [2] is 0.01 µM [falling, full curve].

In the case of `CC(C)n1c(NCc2nc3ccccc3n2C)nc2ccccc21`, the half-maximal activity concentration (AC50) under setting [2] is 17.8 µM [rising, single point]. Regarding `O=C(C1CCN(S(=O)(=O)c2ccc3c(c2)OCCO3)CC1)N1CCc2ccccc21`, the concentration at half-maximal activity (AC50) by setting is: under setting [1], 11.2 µM [rising, partial curve, poor fit]; under setting [2], 17.8 µM [rising, single point]. Turning to `CC(=O)N1CCc2cc(S(=O)(=O)Nc3cccc(C(F)(F)F)c3)ccc21`, under setting [2], the half-maximal activity concentration (AC50) was 12.6 µM [rising, partial curve]. Regarding `Cc1ccc(C)c(C(=O)CSc2n[nH]c(-c3ccncc3)n2)c1`, the AC50 was 11.2 µM [rising, partial curve, poor fit] under setting [1] and 14.1 µM [rising, partial curve] under setting [2].

As for `O=[N+]([O-])c1ccc(O)c(C=Nc2ccc3nc(-c4ccccc4)[nH]c3c2)c1`, under setting [2], the AC50 was 35.5 µM [rising, single point].

Turning to `CC(C)=Cc1oc2ccc([N+](=O)[O-])cc2c1N1CC(C)OC(C)C1` (configuration not stated), under setting [1], the concentration at half-maximal activity (AC50) was 0.00447 µM [falling, full curve, poor fit]. On to `CN(NS(=O)(=O)c1ccc(Br)cc1)c1nc(C(F)(F)F)nc2ccccc12`, for which the AC50 under setting [2] was 35.5 µM [rising, single point]. Take `COc1ccc(CNC(=O)C(=O)Nc2c3c(nn2-c2ccccc2)CSC3)cc1`: under setting [1], the AC50 was 0.0224 µM [falling, full curve].

Regarding `CCN(CC)C(=O)c1c(-c2ccccc2)oc2ccc(OC)cc12`, the concentration at half-maximal activity (AC50) is 12.6 µM [rising, partial curve] under setting [1] and 20 µM [rising, single point] under setting [2]. As for `O=C(Nc1ccccc1)Nc1cccc(Cl)c1`, under setting [2], the AC50 was 12.6 µM [rising, single point].

In the case of `Nn1c(SCC(=O)NCc2ccccc2)nnc1C1CC1`, under setting [1], the half-maximal activity concentration (AC50) was 12.6 µM [rising, single point]. For `Cc1cccc(S(=O)(=O)Nc2ccc(-c3cn4ccccc4n3)cc2)c1`, under setting [2], the concentration at half-maximal activity (AC50) was 11.2 µM [rising, partial curve]. In the case of `O=C(c1cnn2c1NC(c1ccc(Br)cc1)CC2C(F)(F)F)N1CCN(C23CC4CC(CC(C4)C2)C3)CC1` (configuration not stated), the half-maximal activity concentration (AC50) under setting [2] is 25.1 µM [rising, single point]. Take `CCCCCCSc1nnc(-c2cnn(-c3ccccc3)c2-n2cccc2)n1C`: the half-maximal activity concentration (AC50) under setting [2] was 35.5 µM [rising, single point]. Take `CCOC(=O)CSc1nc2ccsc2c(=O)n1C1CCN(C(=O)OCC)CC1`: the concentration at half-maximal activity (AC50) under setting [2] was 12.6 µM [rising, partial curve]. Regarding `O=C(NCCc1csc(-c2ccc(C(F)(F)F)cc2)n1)c1ccc(F)c(F)c1`, under setting [2], the AC50 was 15.8 µM [rising, single point].

Regarding `Cc1ccc(N2C(=O)c3n[nH]c(C)c3C2c2cccnc2)cc1` (configuration not stated), under setting [2], the half-maximal activity concentration (AC50) was 2 µM [rising, full curve, poor fit]. For the compound `COc1cccc2cc(C(C)N(CCCN3CCOCC3)C(=O)Nc3ccc(Cl)cc3)oc12` (configuration not stated), under setting [2], the AC50 is 12.6 µM [rising, single point]. `Cc1nc(Nc2ccncc2)c2oc3ccccc3c2n1`: the AC50 under setting [2] is 12.6 µM [rising, partial curve]. With `COc1ccc(-c2ocnc2C(=O)N2CCN(Cc3cccnc3)CC2)cc1`, under setting [2], the AC50 is 0.141 µM [falling, full curve, poor fit]. As to `COc1ccc(C(CCN(Cc2ccc(OC)c(OC)c2)C(=O)CCl)c2ccccc2)cc1` (configuration not stated), the concentration at half-maximal activity (AC50) is 35.5 µM [falling, single point] under setting [1] and 35.5 µM [falling, single point] under setting [2]. For `Cc1c(Cc2ccc3c(c2)OCO3)sc(NC(=O)c2ccc3ccccc3c2)c1C(N)=O`, the AC50 under setting [1] is 0.00447 µM [falling, full curve, poor fit].
